# Source: the supplement of paper PMC3334620
# Whole data set: some 33,000 sequences, median “E-score (-0.5 to 0.5)” near -0.015, cut for the highest 2% near 0.3. The list shows a part of the results.
# Biological target: T1, Abf1 (UniProt P14164)
# T1 sequence: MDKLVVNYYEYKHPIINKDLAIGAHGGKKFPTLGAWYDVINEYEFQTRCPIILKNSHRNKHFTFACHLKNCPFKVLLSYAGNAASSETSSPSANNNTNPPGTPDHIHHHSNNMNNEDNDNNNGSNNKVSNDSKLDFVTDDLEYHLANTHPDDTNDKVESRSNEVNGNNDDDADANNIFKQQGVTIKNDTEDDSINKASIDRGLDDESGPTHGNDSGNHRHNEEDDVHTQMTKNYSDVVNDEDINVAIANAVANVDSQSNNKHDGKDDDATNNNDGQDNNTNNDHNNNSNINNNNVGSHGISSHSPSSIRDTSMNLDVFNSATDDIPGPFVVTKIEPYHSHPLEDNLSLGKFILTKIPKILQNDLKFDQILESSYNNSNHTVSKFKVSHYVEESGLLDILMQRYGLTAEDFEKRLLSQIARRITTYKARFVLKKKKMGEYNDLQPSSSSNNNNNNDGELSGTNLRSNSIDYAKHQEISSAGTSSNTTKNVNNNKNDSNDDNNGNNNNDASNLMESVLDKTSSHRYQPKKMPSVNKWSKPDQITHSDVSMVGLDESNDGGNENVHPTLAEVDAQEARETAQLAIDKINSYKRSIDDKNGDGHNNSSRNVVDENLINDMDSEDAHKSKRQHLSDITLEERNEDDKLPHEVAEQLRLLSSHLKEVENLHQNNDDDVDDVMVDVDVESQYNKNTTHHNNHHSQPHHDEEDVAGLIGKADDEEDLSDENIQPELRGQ
# Experiment: PBM E-score (8-mer binding enrichment) (E-score (-0.5 to 0.5)); higher = stronger / more preferred TF binding
# Settings: protein concentration: 200 nM; construct: GST-full length
# Summary of the method: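 Universal all-10-mer Agilent arrays, double-stranded by primer extension on fresh or once-stripped slides, were probed with about 100-200 nM GST-tagged yeast transcription factors made by PURExpress. Fluorescent anti-GST detected bound protein, and masliner normalised the scans. E-scores from the Universal PBM Analysis Suite were given to each ungapped eight-base word pooled with its reverse complement.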
row,Sequence,PBM E-score
1,AATTCTCC,-0.102
2,GCCTATTA,-0.113
3,CACGACAG,0.211
4,CCCTGGAC,0.0237
5,CAGTATAA,0.0392
6,AAACAGTC,-0.136
7,GCCTAGAC,-0.11
8,GATACTCC,0.102
9,AGCGAATC,-0.0504
10,ACATTGCC,0.115
11,CGGGAGAG,-0.201
12,CGAGTCGA,0.00432
13,TCGTTTCA,0.293
14,CTTGACGA,0.149
15,GATACCAA,0.148
16,CAAAAAAG,0.137
17,ACGTGGTA,0.148
18,AAAGTATG,0.0323
19,CATCGCGC,0.0864
20,CTCGCAAC,0.128
21,GCCTACGC,-0.0487
22,AATAATAG,-0.0144
23,TCTGCTAA,-0.0111
24,CCCACGCA,0.0232
25,ATTAATCC,-0.0669

row,Sequence,PBM E-score
1,AGTTAATG,0.155
2,ACGTGGTC,0.155
3,CTTGCTAC,-0.0171
4,ACTGGATA,0.122
5,ATGTAGGG,-0.256
6,AACCCCGT,0.0712
7,ACACTTAA,-0.0289
8,TAGAGATA,0.136
9,CCGACGTC,0.139
10,ACTGATAA,0.126
11,CTGGGCAC,-0.0891
12,CATACTAA,0.105
13,CTATTCTC,-0.0913
14,ACTCCTCT,-0.146
15,ATCTGTCC,0.00463
16,CGGCTTAC,0.0369
17,AAGGAAAT,-0.0972
18,CGAGAGTC,-0.0578
19,AGTTGTAC,0.0977
20,AAGAACAG,0.0569
21,CGCAGCAG,-0.0221
22,GTGCCGAA,0.177
23,AGGCAGGA,0.0503
24,GACAGCAC,-0.0499
25,GACAGAAA,0.0767

row,Sequence,PBM E-score
1,AGCGGGTC,-0.0485
2,CCATGGAG,-0.208
3,CAAAGAAG,-0.0247
4,AAGAGAAC,0.0218
5,ATATGGGA,-0.173
6,CCTAGCCA,-0.0706
7,AACTCGCA,0.00732
8,GCACATTA,0.098
9,AGGAGGGG,-0.338
10,AAATTGAA,-0.0312
11,CTCACGAA,0.155
12,TGGTACAA,-0.0456
13,ACTAATCC,0.0179
14,ATTGGATC,0.124
15,CGGGAGGC,-0.326
16,CTGAGTTA,-0.0779
17,AACCGCGG,-0.163
18,GCCTGCCC,-0.332
19,TATTATGA,0.0866
20,GAGGGCCC,-0.223
21,AAGCGCCT,-0.201
22,GCATTGGC,-0.278
23,TAGGCATA,-0.151
24,CGAATTTA,0.146
25,ACCCCTGC,-0.307

row,Sequence,PBM E-score
1,GCAATGTA,0.0375
2,CACTTTGA,0.025
3,AGGGTGGG,-0.0843
4,ACGCGTGC,-0.0153
5,ACCAAAGC,0.131
6,AGCCAACA,-0.0935
7,AGAGCGAT,0.0783
8,ATCTCAGG,-0.184
9,AGCCGGCA,-0.132
10,ATGATTTG,0.193
11,CATGTTAG,-0.038
12,CCTACAAC,0.0213
13,GCACGTCA,0.0421
14,ATTTGTAG,-0.0294
15,GCCACACC,-0.174
16,ATCACGTA,0.218
17,AACGGCTG,0.0109
18,AAATTGGC,-0.0692
19,AAGCCACG,0.124
20,AGCGCGAG,-0.21
21,CCATACAC,0.017
22,TAATCCGA,-0.0108
23,CTTAAAAG,-0.0764
24,CGAGATAG,-0.0382
25,ACAAGATG,0.0794

row,Sequence,PBM E-score
1,ATTCGCAG,0.0177
2,ACAAGGAG,-0.205
3,AAGTTAGA,0.0437
4,ACTATCTG,-0.119
5,AAGTGCAT,0.0354
6,CCCTCCAA,-0.213
7,ACCAGAAA,0.0237
8,AGGCTCAT,-0.0285
9,ACCTGTAA,0.0555
10,CCCAGTAA,0.00346
11,TCGAAGAA,-0.154
12,ACAGAAAT,0.00533
13,ACATCGAG,-0.0781
14,TTGTAAAA,-0.064
15,GCGTTAAC,0.0377
16,CTTTATGC,0.00634
17,CGGTAACA,0.103
18,CCTAGATA,-0.0255
19,AATAGTCG,0.0257
20,GCGAGCCC,-0.216
21,GCCCGTGA,-0.0396
22,CGTGACCA,0.0961
23,GCCTAGCC,-0.218
24,AAGAGGCG,-0.117
25,AGAGCCAC,-0.236

# 4 entries from above, as tab-separated lines:
row	Sequence	PBM E-score
21	GCCCGTGA	-0.0396
22	CGTGACCA	0.0961
23	GCCTAGCC	-0.218
24	AAGAGGCG	-0.117

# Continuation.

row,Sequence,PBM E-score
1,AAGCACTT,-0.0368
2,CTGTAGGA,-0.267
3,AGCATTGA,0.026
4,AGGGAGCA,-0.172
5,TTCGTAAA,0.216
6,ACACAACT,-0.0651
7,AGCTCATA,0.0925
8,GTGATCAA,0.392
9,AGTGCGCG,-0.139
10,CCGCACGA,0.376
11,ATAGCACG,0.126
12,ATGTTACC,0.0782
13,CTAATGAG,0.0956
14,CAATAGTC,-0.0584
15,AAAACGTT,0.126
16,ACCGGATA,-0.161
17,AAGGTATT,0.165
18,CCCATGAC,0.0292
19,GTGCGGGA,-0.0179
20,ACGCGCCT,-0.0785
21,CAAATAAA,0.186
22,AAGCGGTG,-0.034
23,CCTCAAGC,-0.0869
24,GGCAGGCA,-0.252
25,GTGGACTA,0.077

# Some values from above:
# GCCTACGC – PBM E-score: -0.0487
# ATCACGTA – PBM E-score: 0.218
# CAGTATAA – PBM E-score: 0.0392
# ATGTAGGG – PBM E-score: -0.256
# AAGCACTT – PBM E-score: -0.0368

# Additional records:

row,Sequence,PBM E-score
1,CCCCCTAG,-0.114
2,AACTGTTC,-0.0835
3,ACGCGCAG,-0.0955
4,GAAATCGC,-0.0161
5,CCACACTA,0.0817
6,CCTATGTC,0.0872
7,AGCCCCAA,-0.184
8,GATACCCC,0.0295
9,ACTCATCT,-0.0475
10,CTGGAGAA,-0.163
11,CAATTCGG,-0.00914
12,AATCCAGC,0.00313
13,AAGTCGAT,-0.0117
14,CAGAAAAG,-0.106
15,AAATCTCC,-0.00978
16,CTGAATAC,-0.00099
17,TCATGCAA,-0.0503
18,AGCGATAC,0.202
19,CAGATAGG,-0.0695
20,AACTCACT,-0.0717
21,CATTGGCA,0.0719
22,AGTCTTGG,-0.0867
